# This is one part of the list. Small differences around the control level are noise.
# Amino acid sequences for entries named in this document (tags omitted). A change or cut given only in a name is not applied to a line headed by its entry.
# UniProt Q9Y530: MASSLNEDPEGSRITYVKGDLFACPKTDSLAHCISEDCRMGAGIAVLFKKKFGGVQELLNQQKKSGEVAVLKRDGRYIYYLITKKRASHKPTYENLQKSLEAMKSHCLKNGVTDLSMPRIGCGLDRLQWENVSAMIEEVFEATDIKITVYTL
# UniProt Q9Y285: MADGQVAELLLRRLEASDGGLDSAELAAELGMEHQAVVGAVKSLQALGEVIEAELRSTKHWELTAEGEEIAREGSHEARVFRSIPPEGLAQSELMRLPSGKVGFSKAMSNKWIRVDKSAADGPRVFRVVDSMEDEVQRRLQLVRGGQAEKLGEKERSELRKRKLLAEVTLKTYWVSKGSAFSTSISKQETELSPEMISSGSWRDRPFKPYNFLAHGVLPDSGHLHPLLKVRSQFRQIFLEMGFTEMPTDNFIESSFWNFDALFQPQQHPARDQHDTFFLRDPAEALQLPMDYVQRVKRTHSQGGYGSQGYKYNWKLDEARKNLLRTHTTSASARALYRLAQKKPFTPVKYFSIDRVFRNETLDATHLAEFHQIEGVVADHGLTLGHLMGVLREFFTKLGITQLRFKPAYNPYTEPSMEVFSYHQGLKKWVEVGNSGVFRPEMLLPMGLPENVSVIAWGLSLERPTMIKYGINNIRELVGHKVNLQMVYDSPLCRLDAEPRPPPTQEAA
# UniProt Q9Y3D2: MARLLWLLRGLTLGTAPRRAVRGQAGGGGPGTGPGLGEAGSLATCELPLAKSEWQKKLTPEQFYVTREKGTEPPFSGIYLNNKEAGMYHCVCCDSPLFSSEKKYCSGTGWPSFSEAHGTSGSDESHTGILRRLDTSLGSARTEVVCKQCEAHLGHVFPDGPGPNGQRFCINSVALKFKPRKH
# UniProt Q9Y546: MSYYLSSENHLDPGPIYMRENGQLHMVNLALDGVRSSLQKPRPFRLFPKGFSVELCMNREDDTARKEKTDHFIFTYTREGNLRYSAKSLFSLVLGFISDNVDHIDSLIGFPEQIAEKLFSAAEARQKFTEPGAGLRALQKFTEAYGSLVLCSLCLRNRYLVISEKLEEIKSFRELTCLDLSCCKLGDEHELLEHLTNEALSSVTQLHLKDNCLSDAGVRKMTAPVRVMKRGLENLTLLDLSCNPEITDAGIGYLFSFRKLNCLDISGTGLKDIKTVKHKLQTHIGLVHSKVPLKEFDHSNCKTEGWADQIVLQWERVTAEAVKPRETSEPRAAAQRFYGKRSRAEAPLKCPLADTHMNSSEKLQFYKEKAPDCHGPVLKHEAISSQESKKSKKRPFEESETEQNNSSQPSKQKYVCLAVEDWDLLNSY
# UniProt Q9Y2L9: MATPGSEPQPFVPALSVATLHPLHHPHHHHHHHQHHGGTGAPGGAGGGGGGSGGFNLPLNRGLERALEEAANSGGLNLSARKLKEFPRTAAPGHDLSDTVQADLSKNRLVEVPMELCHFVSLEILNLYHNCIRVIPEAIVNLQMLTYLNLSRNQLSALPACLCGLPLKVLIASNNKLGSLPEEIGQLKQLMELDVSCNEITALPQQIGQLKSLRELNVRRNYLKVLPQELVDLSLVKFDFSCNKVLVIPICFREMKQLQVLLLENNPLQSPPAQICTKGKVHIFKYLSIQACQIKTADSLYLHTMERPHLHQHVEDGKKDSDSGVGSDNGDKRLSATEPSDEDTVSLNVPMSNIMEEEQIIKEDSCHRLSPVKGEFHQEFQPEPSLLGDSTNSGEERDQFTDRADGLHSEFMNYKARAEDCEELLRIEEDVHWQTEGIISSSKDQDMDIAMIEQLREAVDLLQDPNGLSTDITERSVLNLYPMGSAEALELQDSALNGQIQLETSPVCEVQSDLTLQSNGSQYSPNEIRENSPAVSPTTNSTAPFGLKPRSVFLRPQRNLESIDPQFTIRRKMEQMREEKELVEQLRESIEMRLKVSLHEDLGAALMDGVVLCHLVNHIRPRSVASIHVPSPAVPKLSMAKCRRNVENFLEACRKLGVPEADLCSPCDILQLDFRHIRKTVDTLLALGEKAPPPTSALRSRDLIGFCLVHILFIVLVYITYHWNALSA
# UniProt Q9Y3A3: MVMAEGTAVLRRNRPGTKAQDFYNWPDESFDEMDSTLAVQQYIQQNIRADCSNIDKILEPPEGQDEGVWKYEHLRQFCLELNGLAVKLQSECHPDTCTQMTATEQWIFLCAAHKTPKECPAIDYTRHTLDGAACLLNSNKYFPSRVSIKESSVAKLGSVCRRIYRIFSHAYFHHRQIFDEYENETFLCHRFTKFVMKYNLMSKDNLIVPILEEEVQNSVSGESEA
# UniProt Q9Y3X0: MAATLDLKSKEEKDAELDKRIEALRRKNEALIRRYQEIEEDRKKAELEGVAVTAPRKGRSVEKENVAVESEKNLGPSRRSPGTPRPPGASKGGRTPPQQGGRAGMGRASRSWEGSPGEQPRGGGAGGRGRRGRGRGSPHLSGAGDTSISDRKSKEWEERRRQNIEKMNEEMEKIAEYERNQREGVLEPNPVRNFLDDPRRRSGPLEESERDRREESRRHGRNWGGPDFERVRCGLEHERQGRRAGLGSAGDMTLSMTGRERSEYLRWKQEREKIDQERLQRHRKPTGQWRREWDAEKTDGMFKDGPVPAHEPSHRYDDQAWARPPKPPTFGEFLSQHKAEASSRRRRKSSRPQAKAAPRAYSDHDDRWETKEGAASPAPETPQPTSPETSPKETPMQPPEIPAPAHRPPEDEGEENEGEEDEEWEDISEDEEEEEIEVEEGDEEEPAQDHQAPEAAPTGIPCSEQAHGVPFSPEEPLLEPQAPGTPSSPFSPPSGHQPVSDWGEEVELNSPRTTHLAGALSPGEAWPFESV
# UniProt Q9Y6M4: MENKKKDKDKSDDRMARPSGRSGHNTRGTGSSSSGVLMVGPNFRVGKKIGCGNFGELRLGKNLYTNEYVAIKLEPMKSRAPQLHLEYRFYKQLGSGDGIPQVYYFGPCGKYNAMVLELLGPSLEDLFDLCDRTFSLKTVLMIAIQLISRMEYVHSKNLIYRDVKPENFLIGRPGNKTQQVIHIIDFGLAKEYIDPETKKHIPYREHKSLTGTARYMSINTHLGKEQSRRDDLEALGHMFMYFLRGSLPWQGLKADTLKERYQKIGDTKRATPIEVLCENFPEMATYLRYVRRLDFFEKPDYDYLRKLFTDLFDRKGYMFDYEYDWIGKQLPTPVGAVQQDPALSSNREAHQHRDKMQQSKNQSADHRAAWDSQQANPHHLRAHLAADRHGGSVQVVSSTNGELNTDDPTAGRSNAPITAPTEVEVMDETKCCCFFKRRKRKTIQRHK
# UniProt Q9Y5V0: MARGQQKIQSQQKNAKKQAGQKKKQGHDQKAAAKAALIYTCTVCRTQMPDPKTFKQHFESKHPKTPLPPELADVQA
# UniProt Q9Y3M9: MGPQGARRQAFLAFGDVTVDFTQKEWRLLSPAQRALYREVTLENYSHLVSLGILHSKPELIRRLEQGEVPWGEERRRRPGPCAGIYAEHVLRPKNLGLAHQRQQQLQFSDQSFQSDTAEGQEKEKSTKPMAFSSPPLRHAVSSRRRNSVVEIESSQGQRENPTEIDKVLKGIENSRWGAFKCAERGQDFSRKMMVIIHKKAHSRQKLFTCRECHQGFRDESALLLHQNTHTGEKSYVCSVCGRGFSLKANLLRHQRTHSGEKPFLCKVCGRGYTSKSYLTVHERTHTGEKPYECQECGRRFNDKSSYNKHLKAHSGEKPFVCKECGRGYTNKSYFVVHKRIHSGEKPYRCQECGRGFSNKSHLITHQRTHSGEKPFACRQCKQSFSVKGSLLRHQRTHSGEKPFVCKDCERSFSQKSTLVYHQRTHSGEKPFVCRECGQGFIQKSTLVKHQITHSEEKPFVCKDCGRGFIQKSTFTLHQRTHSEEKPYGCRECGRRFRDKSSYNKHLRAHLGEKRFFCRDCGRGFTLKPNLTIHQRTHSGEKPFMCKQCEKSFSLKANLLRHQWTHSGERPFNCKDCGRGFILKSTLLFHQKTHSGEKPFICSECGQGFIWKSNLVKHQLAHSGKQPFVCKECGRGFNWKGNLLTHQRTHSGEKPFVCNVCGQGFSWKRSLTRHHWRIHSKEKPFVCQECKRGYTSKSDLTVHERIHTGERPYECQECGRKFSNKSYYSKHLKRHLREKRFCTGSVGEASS
# UniProt Q9Y5A9: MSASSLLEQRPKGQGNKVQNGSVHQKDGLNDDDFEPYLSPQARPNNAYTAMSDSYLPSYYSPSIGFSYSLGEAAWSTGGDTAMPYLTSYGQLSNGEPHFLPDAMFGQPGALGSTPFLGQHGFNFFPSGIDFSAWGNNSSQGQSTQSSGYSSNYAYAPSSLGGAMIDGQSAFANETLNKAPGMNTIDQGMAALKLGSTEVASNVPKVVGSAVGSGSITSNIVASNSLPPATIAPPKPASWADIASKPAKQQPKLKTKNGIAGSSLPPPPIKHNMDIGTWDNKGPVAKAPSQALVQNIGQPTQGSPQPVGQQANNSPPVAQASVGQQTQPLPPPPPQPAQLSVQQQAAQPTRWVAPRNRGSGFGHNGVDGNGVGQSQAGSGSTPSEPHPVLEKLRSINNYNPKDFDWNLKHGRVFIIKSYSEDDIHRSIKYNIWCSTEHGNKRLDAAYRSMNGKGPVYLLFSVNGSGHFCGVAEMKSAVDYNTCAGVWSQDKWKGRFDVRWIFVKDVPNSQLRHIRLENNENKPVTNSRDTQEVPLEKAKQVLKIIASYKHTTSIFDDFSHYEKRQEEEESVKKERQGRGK
# UniProt Q9Y3Y2: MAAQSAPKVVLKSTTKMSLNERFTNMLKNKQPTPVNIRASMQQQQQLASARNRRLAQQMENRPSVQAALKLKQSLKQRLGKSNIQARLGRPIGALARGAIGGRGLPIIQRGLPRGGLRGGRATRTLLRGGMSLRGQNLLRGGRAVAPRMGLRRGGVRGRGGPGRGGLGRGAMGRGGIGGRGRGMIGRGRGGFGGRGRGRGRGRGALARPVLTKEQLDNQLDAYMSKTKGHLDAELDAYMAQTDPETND
# UniProt Q9Y3Z3: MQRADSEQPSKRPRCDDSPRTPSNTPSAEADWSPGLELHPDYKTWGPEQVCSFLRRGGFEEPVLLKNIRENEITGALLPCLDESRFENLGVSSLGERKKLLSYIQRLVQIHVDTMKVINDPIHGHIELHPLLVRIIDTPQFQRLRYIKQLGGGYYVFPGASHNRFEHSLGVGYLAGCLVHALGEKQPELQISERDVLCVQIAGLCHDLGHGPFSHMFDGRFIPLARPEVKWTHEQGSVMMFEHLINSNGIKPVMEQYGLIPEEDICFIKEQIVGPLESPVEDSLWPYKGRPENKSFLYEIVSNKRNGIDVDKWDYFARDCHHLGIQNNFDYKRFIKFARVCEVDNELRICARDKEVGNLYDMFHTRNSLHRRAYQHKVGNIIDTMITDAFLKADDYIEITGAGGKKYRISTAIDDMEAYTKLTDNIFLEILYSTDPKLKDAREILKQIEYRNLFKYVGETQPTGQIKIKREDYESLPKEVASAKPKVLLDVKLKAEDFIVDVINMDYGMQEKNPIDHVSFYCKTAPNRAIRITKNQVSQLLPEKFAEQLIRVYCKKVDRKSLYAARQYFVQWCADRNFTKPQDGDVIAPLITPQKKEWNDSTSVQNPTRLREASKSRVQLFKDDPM
# UniProt Q9Y2B0: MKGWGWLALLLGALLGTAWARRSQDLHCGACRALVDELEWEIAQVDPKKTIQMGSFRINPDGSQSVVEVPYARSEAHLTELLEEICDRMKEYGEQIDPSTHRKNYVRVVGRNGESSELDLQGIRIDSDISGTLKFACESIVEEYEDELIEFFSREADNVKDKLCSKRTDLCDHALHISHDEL
# Compound: Cc1nc(Nc2ncc(C(=O)Nc3c(C)cccc3Cl)s2)cc(N2CCN(CCO)CC2)n1 [dasatinib]
# Assay: log2 fold change of tryptic peptide abundance, ligand vs vehicle (limited proteolysis) (log2 ratio); higher = more trypsin-susceptible (destabilized)
# Details: ligand concentration: 5 uM; sample: K562 cleared lysate
row,Target,log2 fold change
1,"TRRAP (peptide sequence: AQATAQDPVFQK, peptide start residue: 3404) (UniProt Q9Y4A5)",0.354
2,"ATG4B (peptide sequence: DSYYSIHQIAQMGVGEGK, peptide start residue: 120) (UniProt Q9Y4P1)",0.189
3,"UniProt Q9Y530 (peptide sequence: GDLFACPK, peptide start residue: 19)",-0.117
4,"CLIC4 (peptide sequence: KPADLQNLAPGTHPPFITFNSEVK, peptide start residue: 62) (UniProt Q9Y696)",0.275
5,"UniProt Q9Y4F3 (peptide sequence: LFPAVPLPDIR, peptide start residue: 74)",-0.331
6,"MTF2 (peptide sequence: KSVGRPPGPYTR, peptide start residue: 400) (UniProt Q9Y483)",-0.37
7,"TRPV2 (peptide sequence: LETLDGGQEDGSEADRGK, peptide start residue: 12) (UniProt Q9Y5S1)",-0.388
8,"MAST1 (peptide sequence: DLKPDNLLITSMGHIK, peptide start residue: 635) (UniProt Q9Y2H9)",0.171
9,"USP20 (peptide sequence: MAPSYVLKK, peptide start residue: 417) (UniProt Q9Y2K6)",-0.223
10,"FARSA (peptide sequence: KLLAEVTLK, peptide start residue: 163) (UniProt Q9Y285)",0.101
11,"MSRB2 (peptide sequence: QCEAHLGHVFPDGPGPNGQR, peptide start residue: 148) (UniProt Q9Y3D2)",-0.1
12,"CEP170B (peptide sequence: LDILAMPR, peptide start residue: 1167) (UniProt Q9Y4F5)",-0.251
13,"LRRC42 (peptide sequence: EKTDHFIFTYTR, peptide start residue: 67) (UniProt Q9Y546)",-0.347
14,"LAS1L (peptide sequence: RFSAGQWEAR, peptide start residue: 439) (UniProt Q9Y4W2)",0.342
15,"LRCH1 (peptide sequence: NVENFLEACRK, peptide start residue: 721) (UniProt Q9Y2L9)",0.57
16,"UniProt Q9Y3A3 (peptide sequence: HTLDGAACLLNSNKYFPSR, peptide start residue: 127)",-0.419
17,"CCDC9 (peptide sequence: EWDAEKTDGMFK, peptide start residue: 292) (UniProt Q9Y3X0)",-0.134
18,"SAR1B (peptide sequence: LVFLGLDNAGK, peptide start residue: 28) (UniProt Q9Y6B6)",-0.345
19,"MRPL11 (peptide sequence: IGQPTVSYFLK, peptide start residue: 82) (UniProt Q9Y3B7)",0.112

row,Target,log2 fold change
1,"UniProt Q9Y6M4 (peptide sequence: GSLPWQGLK, peptide start residue: 247)",-0.248
2,"UniProt Q9Y5V0 (peptide sequence: AALIYTCTVCR, peptide start residue: 35)",-0.0137
3,"ZNF330 (peptide sequence: CKACFCDDHTR, peptide start residue: 189) (UniProt Q9Y3S2)",0.0701
4,"UniProt Q9Y283 (peptide sequence: EQHVSSDLQGTNSR, peptide start residue: 673)",-0.34
5,"TAF6L (peptide sequence: AVLGDDPQLMK, peptide start residue: 167) (UniProt Q9Y6J9)",-0.266
6,"CHMP3 (peptide sequence: IPEIQATMR, peptide start residue: 120) (UniProt Q9Y3E7)",0.0781
7,"UniProt Q9Y3M9 (peptide sequence: NLGLAHQR, peptide start residue: 95)",0.312
8,"YTHDF2 (peptide sequence: TKNGIAGSSLPPPPIK, peptide start residue: 255) (UniProt Q9Y5A9)",-0.296
9,"TBL2 (peptide sequence: AMVEEMQGHLKR, peptide start residue: 407) (UniProt Q9Y4P3)",-0.233
10,"UniProt Q9Y3Y2 (peptide sequence: GALARPVLTK, peptide start residue: 204)",-0.734
11,"SAMHD1 (peptide sequence: NFTKPQDGDVIAPLITPQKK, peptide start residue: 577) (UniProt Q9Y3Z3)",0.141
12,"NCKAP1 (peptide sequence: IGQETDKTTTR, peptide start residue: 1069) (UniProt Q9Y2A7)",0.386
13,"CNPY2 (peptide sequence: SQDLHCGACR, peptide start residue: 23) (UniProt Q9Y2B0)",0.138
14,"SNX14 (peptide sequence: LFNDLFK, peptide start residue: 757) (UniProt Q9Y5W7)",0.0468
15,"ASF1A (peptide sequence: ENPPVKPDFSK, peptide start residue: 124) (UniProt Q9Y294)",-0.0918
16,"RBM7 (peptide sequence: LYGRPIKIQFR, peptide start residue: 75) (UniProt Q9Y580)",-0.454
17,"TDRKH (peptide sequence: IAHSAETR, peptide start residue: 204) (UniProt Q9Y2W6)",0.574
18,"KLHL20 (peptide sequence: NYLLLPQERPLMQGPR, peptide start residue: 292) (UniProt Q9Y2M5)",0.472

# Nothing new here: an excerpt of the list.
row,Target,log2 fold change
3,"ZNF330 (peptide sequence: CKACFCDDHTR, peptide start residue: 189) (UniProt Q9Y3S2)",0.0701
4,"UniProt Q9Y283 (peptide sequence: EQHVSSDLQGTNSR, peptide start residue: 673)",-0.34

# Reference: the supplement of paper PMC12819154, “High-throughput peptide-centric local stability assay extends protein–ligand identification to membrane proteins, tissues and bacteria” (Nature Structural & Molecular Biology, 2025)
